Source: PubChem BioAssay AID504847 (National Center for Advancing Translational Sciences (NCATS), 2011)
Hit rate of the full screen: of about 400,000 compounds, about 3,700 (0.93%) were called active. Inconclusive results, whose numbers are uncertain, are shown with a selection of clear calls. Calls come from the whole dose curve; as a rule, active = well fitted inhibition curve with a large enough effect; inconclusive = small, poorly fitted or top-dose-only effect, or another doubt; inactive = no such curve, though single readings can be large or run the other way. Potencies of inconclusive entries are doubtful fits and often do not repeat.

Amino acid sequences for entries named in this document (tags omitted).
UniProt P11473, whole entry, looked up: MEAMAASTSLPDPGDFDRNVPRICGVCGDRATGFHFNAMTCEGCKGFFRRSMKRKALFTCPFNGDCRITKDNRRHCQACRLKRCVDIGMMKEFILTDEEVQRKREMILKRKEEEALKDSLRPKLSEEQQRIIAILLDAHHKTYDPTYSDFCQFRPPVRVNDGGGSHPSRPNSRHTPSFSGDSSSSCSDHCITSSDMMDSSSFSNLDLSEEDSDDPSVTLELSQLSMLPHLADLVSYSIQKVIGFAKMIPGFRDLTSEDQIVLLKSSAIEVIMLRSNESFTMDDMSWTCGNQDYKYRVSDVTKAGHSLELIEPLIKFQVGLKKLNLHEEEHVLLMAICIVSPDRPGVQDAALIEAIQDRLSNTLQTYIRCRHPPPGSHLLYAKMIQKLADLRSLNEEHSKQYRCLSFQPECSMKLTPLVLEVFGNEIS

biological target: Vitamin D3 receptor (Homo sapiens) (UniProt P11473); test: Inhibitors of the vitamin D receptor (VDR): qHTS; settings: VDR-SRC2-3 peptide fluorescence polarization, 2 h; max response, negative = inhibition: active compounds read low
How it was run: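 FP read-out; VDR + SRC2-3 coactivator peptide; 23 nl compound by pintool; 2 h RT incubation; reagents held at 4 deg C, protected from light.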
% is set by controls: 0 for no effect and ±100 for the full control effect; potency is the fitted concentration of half-maximal effect.

Structure (SMILES) | Potency | max response, negative = inhibition
CC(C(=O)NC1CCS(=O)(=O)C1)N1C(=O)/C(=C/c2ccc(Cl)cc2)SC1=S (centres undefined) | inconclusive: 63.1 µM [inhibitor, partial curve, poor fit] | –
O=C(CCC(=O)c1cccs1)NC1CCCCCC1 | inconclusive: 100 µM [inhibitor, single point] | –
CCOC(=O)C1CCCN(CC(=O)N(C)c2c(N)n(Cc3ccccc3)c(=O)[nH]c2=O)C1 (centres undefined) | inconclusive: 100 µM [inhibitor, single point] | –
COc1ccc(C)cc1C1=Nc2ccccc2C1(C)C | inconclusive: 39.8 µM [inhibitor, single point] | –
Cc1ccc(Sc2c(C)nn(-c3ccccc3)c2OC(=O)C(C)(C)C)cc1 | inconclusive: 79.4 µM [inhibitor, partial curve, poor fit] | –
OC(C#CCN1CCCCC1)(c1ccccc1)c1ccccc1 | – | inactive: -5.96%
Cc1cc(C(=O)Nc2ccc(Nc3ccccc3)cc2)ccc1[N+](=O)[O-] | active: 25.1 µM | –
CCOc1ccc(-n2c(N)c(C(=O)NCc3ccco3)c3nc4ccccc4nc32)cc1 | inconclusive: 79.4 µM [inhibitor, single point] | –
O=C(NCc1ccccc1Cl)c1ccc2c(c1)NC(=O)C(CS(=O)(=O)Cc1ccc(F)cc1Cl)N2 (centres undefined) | – | inactive: -7.24%
CC1=C(Cl)C2=NS(=O)(=O)CCN2C=C1Cl | inconclusive: 100 µM [inhibitor, single point] | –
COc1cc(CN2CCCN(C)CC2)cc([N+](=O)[O-])c1O | inconclusive: 79.4 µM [inhibitor, single point] | –
CCCCC1=CC2=C(c3ccco3)C(=O)C(C)(OC(=O)c3ccc(OC)cc3)C(=O)C2=CN1Cc1ccccc1 (centres undefined) | inconclusive: 79.4 µM [inhibitor, partial curve, poor fit] | –
CCOC(=O)C1CCCCN1Cc1ccc(-c2ccccc2)cc1 (centres undefined) | – | inactive: -7.45%
CC(=O)c1cccc(NC(=O)c2ccc3c(c2)OCO3)c1 | active: 79.4 µM | –
CCN1CCN(S(=O)(=O)c2ccc(Cl)c(C(=O)N(C)Cc3ccco3)c2)CC1 | – | inactive: 0.94%
COc1ccc(CC(=O)NCC2CCCN(Cc3cccc(C(F)(F)F)c3)C2)cc1 (centres undefined) | inconclusive: 70.8 µM [inhibitor, partial curve, poor fit] | –
O=C(CCCOc1ccc(Cl)cc1Cl)n1nnc2ccccc21 | active: 70.8 µM | –
O=C(CSc1ncn(-c2ccccc2)n1)Nc1ccc(Br)cn1 | – | inactive: 1.39%
COc1ccc(NC(=O)O/N=C2/CCCc3ccc(OC)cc32)cc1 | active: 44.7 µM | –

Two compounds drawn at random from the list so far:
Structure (SMILES) | Potency | max response, negative = inhibition
O=C(NCc1ccccc1Cl)c1ccc2c(c1)NC(=O)C(CS(=O)(=O)Cc1ccc(F)cc1Cl)N2 (centres undefined) | – | inactive: -7.24%
CCOC(=O)C1CCCCN1Cc1ccc(-c2ccccc2)cc1 (centres undefined) | – | inactive: -7.45%
